We go through 61 molecules from PubChem BioAssay AID493014 (National Center for Advancing Translational Sciences (NCATS), 2011).

Some of the results follow. Further columns of the screen follow, without active or inactive calls. Most of these compounds were active or inconclusive in the main read-out, so they are no random draw. The note in brackets gives the kind of curve behind each potency; many fits are weak.

The nature of the experiment: qHTS Assay to Find Inhibitors of Chronic Active B-Cell Receptor Signaling. To be noted: ABC-DLBCL IkBa-CBG/CBR reporter, luminescence ratio (green luciferase fused to IkBa over red control in TMD8 lymphoma cells), 4 h. Put shortly: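 Concentration-response series (up to 46 uM) were applied to TMD8 dual-reporter cells for 4 h at 37C with doxycycline. Green/red ratio, after filter-overlap correction, defined %Activity; red signal alone was normalised to basal cells and zero luminescence.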
(In general: qHTS replaces the single test concentration by a dilution series.)

Setting [1] is: measured here: CBR red luminescence, cell number.
Where [2] appears, read: measured here: IkBa-CBG green luminescence.

Consider `CC(C)c1nc2ccc(C(=O)O)cc2[nH]1`, for which, under setting [1], the AC50 – broadly, the midpoint of the concentration-response curve, whichever way the signal moves – was 18.4 µM [falling, partial curve, poor fit].
Regarding `O=C(CSc1ccccn1)N/N=C/C=C/c1ccccc1`, the AC50 under setting [1] is 0.92 µM [rising, full curve, poor fit].
Same read-out and setting: next, `NC(=O)NC(=O)C(c1ccccc1)N1CCN(S(=O)(=O)c2ccc(Br)s2)CC1` (centres undefined): 16.4 µM [falling, partial curve].
Take `CCOC(=O)/C=c1\s/c(=C\c2ccccc2C)c(=O)n1CC(=O)NCc1ccc2c(c1)OCO2`: the half-maximal activity concentration (AC50) by setting is: under setting [1], 29.1 µM [rising, single point]; under setting [2], 23.1 µM [falling, single point].
For `Cc1cccc(OCc2nnc(SCCC(=O)O)n2-c2ccccc2)c1`, the AC50 under setting [1] is 0.1 µM [rising, full curve, poor fit].
Take `COc1cc2c(cc1OC)C(c1cc(Br)ccc1F)N(C(=O)CCl)CC2` (centres undefined): the AC50 under setting [1] is 11.2 µM [rising, partial curve, poor fit] and the half-maximal activity concentration (AC50) under setting [2] is 22.4 µM [falling, single point].
In the case of `O=C(NCc1ccco1)C1c2ccccc2Oc2ccccc21`, under setting [1], the concentration at half-maximal activity (AC50) is 20 µM [falling, single point].
On the same count and under the same terms, under `COc1ccc2c(c1)C(=O)C(=O)N2CCS(=O)(=O)c1ccccc1` stands 35.5 µM [falling, single point]; under `CCOC(=O)c1[nH]c(C)c(C(=O)/C=C/c2ccc(C(=O)O)cc2)c1C`, 35.5 µM [falling, single point]; under `CCCCc1nc(Cl)c(C#N)c2c1CSC(C)(C)C2`, 7.31 µM [rising, partial curve, poor fit].
With `CC(C)(O)CC[C@@H](O)[C@](C)(O)C1CC[C@@]2(O)C3=CC(=O)[C@]4(O)C[C@@H](O)[C@@H](O)C[C@]4(C)C3CC[C@]12C` (some centres undefined), under setting [1], the AC50 was 0.259 µM [rising, full curve, poor fit].
Still for that read-out and setting: under `Cc1ccc(NC(=O)C2CC(=O)N(c3ccc4c(c3)OCCO4)C2)cc1S(=O)(=O)N1CCCCCC1` (centres undefined) stands 29.1 µM [falling, single point].
On the same count and under the same terms, next, `CCCCn1cnc2c(c(-c3ccccc3)c(-c3ccccc3)n2Cc2ccco2)c1=N`: 35.5 µM [falling, single point].
Still for that read-out and setting: under `N#Cc1c(N2CCN(C(=O)c3ccccc3)CC2)nc(-c2ccccc2)c2c1CCCC2` stands 29.1 µM [falling, single point].
As for `CC1CCc2c(sc(NC(=O)CSc3nc(N)cc(=O)[nH]3)c2C(N)=O)C1` (centres undefined), the concentration at half-maximal activity (AC50) by setting is: under setting [1], 13 µM [rising, partial curve]; under setting [2], 20.6 µM [falling, partial curve].
For the molecule `N#CCO/N=C/C(=O)Nc1ccc(F)cc1F`, under setting [1], the AC50 was 6.31 µM [falling, partial curve, poor fit].
As to `COc1ccc(Nc2nc(N)nc(CCl)n2)cc1`, the AC50 under setting [1] was 15.8 µM [rising, single point] and the AC50 under setting [2] is 35.5 µM [falling, partial curve, poor fit].
With `COc1ccccc1NC(=O)Cn1ncc2c1-c1ccccc1OC2`, the AC50 under setting [1] is 18.4 µM [falling, single point].
For `COc1ccc(-c2nn(-c3ccccc3)cc2C(=O)Nc2nccs2)cc1OC`, the concentration at half-maximal activity (AC50) is 1.46 µM [falling, full curve] under setting [1] and 0.517 µM [rising, full curve, poor fit] under setting [2].
In the case of `O=C1C=C(c2cccc3c2sc2ccccc23)C[C@@H](c2ccc(F)cc2)C1`, under setting [1], the AC50 was 29.1 µM [rising, single point].
Turning to `CCOC(=O)N/N=C/C=C/c1ccccc1`, under setting [1], the concentration at half-maximal activity (AC50) is 29.1 µM [falling, single point].
In the case of `CC1CCCCN1CCCNc1ccc(C(CC(N)=O)NC(=O)Cc2cccc3ccccc23)cc1[N+](=O)[O-]` (centres undefined), under setting [1], the AC50 was 3.16 µM [falling, single point].
As to `CC(=O)c1ccc(NC(=S)Nc2cccc3ccccc23)cc1`, under setting [1], the AC50 is 3.16 µM [falling, full curve, poor fit].
With `O=C(N/N=C/c1cccc(OC(=O)c2ccco2)c1)c1ccc(F)cc1`, the AC50 under setting [1] is 14.6 µM [falling, partial curve, poor fit].
On the same count and under the same terms, next, `O=C1N=C(N2CCOCC2)S/C1=C/c1cc2c(cc1[N+](=O)[O-])OCO2`: 7.94 µM [falling, partial curve]; `CNC(=O)CSc1nnc(-c2ccc(S(=O)(=O)N3CCCC3)cc2)n1-c1cccc(C)c1C`: 0.651 µM [falling, partial curve, poor fit]; `C/C(=N/Nc1nc(-c2ccccc2)cc(-c2ccccc2)n1)c1ccc(N)cc1`: 6.51 µM [falling, partial curve].
Take `COc1cc(C(=O)N2CCN(c3cccc(C)c3C)CC2)cc(OC)c1OC`: the concentration at half-maximal activity (AC50) under setting [1] was 16.4 µM [rising, partial curve] and the half-maximal activity concentration (AC50) under setting [2] was 11.6 µM [falling, partial curve].
On to `COc1ccc(NS(=O)(=O)c2cc(NC(=O)c3ccc(C)s3)ccc2N2CCOCC2)cc1`, for which the half-maximal activity concentration (AC50) under setting [1] was 20 µM [rising, partial curve, poor fit].
On to `COc1ccc(C(=O)N/N=C(\C)CC(=O)Nc2ccccn2)cc1OC`, for which the AC50 under setting [1] was 1 µM [falling, full curve, poor fit].
Still for that read-out and setting: next, `O=C1NC(c2ccccc2)C(C(=O)c2cccs2)=C1O` (centres undefined): 20.6 µM [falling, partial curve, poor fit].
`COCCNC(=O)c1cn(Cc2c(F)cccc2Cl)nn1`: the half-maximal activity concentration (AC50) under setting [1] was 10 µM [rising, partial curve, poor fit].
Same read-out and setting: next, `COc1ccc(S(=O)(=O)Nc2c(C)cccc2C)cc1-n1cnnn1`: 35.5 µM [falling, single point].
The same measure, in the same setting: under `COc1ccc(NC(=O)c2cccs2)cc1` stands 32.6 µM [falling, single point]; under `O=C(NCCNS(=O)(=O)c1ccccc1)c1cc(OCC(F)(F)F)ccc1OCC(F)(F)F`, 14.1 µM [rising, single point]; under `COc1ccc(C)c2sc(=NC(=O)c3ccccc3)n(C)c12`, 16.4 µM [falling, partial curve].
`CCc1nonc1NC(=O)c1oc2cc(C)c(C)cc2c1C`: the concentration at half-maximal activity (AC50) under setting [1] is 3.98 µM [rising, full curve, poor fit].
Turning to `COc1ccccc1C(=O)NNC(=O)c1ccccc1F`, the AC50 under setting [1] is 18.4 µM [falling, partial curve].
For the molecule `CCOC(=O)C(Cc1ccccc1)NC(=O)Cn1nnc(-c2ccc(SC)cc2)n1` (centres undefined), under setting [1], the AC50 was 0.1 µM [falling, full curve, poor fit].
Take `C/C(=N\NC(=O)c1ccc2ccccc2c1)c1cccs1`: the AC50 under setting [1] was 22.4 µM [falling, single point].
Same read-out and setting: under `C/C(CC(=O)Nc1cc(C)ccn1)=N\NC(=O)c1ccccc1C` stands 2.82 µM [falling, full curve]; under `CC(=O)c1c(C)nn(C(=O)c2cccs2)c1C`, 29.1 µM [rising, single point]; under `CCOC(=O)C1CCN(c2ccc(Cl)nn2)CC1`, 6.31 µM [rising, single point].
Still for that read-out and setting: under `CC(=O)c1ccc(NC(=O)c2ccc3nc(-c4ccco4)c(-c4ccco4)nc3c2)cc1` stands 20.6 µM [falling, partial curve, poor fit]; under `O=C(CCc1ccccc1)NNC(=O)Nc1ccc(Br)cc1`, 0.282 µM [rising, full curve, poor fit]; under `O=C(CSc1ncccc1-c1nc2ccccc2[nH]1)Nc1ccc2c(c1)OCCO2`, 13 µM [falling, partial curve, poor fit].
As for `COC(=O)c1cc2ccsc2n1Cc1ccccc1F`, the AC50 under setting [1] is 18.4 µM [rising, partial curve].
Turning to `CCn1c(CCNC(=O)c2ccc(OC)c(OC)c2)nc2ccccc21`, the AC50 runs as follows: under setting [1], 1.64 µM [falling, full curve, poor fit]; under setting [2], 18.4 µM [rising, partial curve, poor fit].
Turning to `Cc1cc(OCC(=O)Nc2ccccc2N2CCOCC2)c(C(C)C)cc1Cl`, the concentration at half-maximal activity (AC50) under setting [1] was 9.2 µM [falling, partial curve].
On to `COc1ccc(NC(=O)NCCc2ccc(Cl)cc2)cc1OC`, for which the AC50 under setting [1] was 35.5 µM [rising, single point].
Take `N/C(=N\OC(=O)CCC1CCCC1)c1ccncc1`: the AC50 under setting [1] is 12.6 µM [rising, partial curve, poor fit].
On the same count and under the same terms, next, `Cc1cccc(C(=O)N[C@H](C(=O)Nc2ncc(C)s2)C(C)C)c1`: 6.31 µM [rising, single point]; `COc1ccc(-c2csc(Nc3ccc(S(N)(=O)=O)cc3)n2)cc1OC`: 10 µM [falling, partial curve, poor fit].
With `O=C(c1ccc(-c2ccccc2)cc1)C1CCCN(Cc2ccncc2)C1` (centres undefined), the AC50 reads like this: under setting [1], 4.47 µM [falling, partial curve]; under setting [2], 0.631 µM [rising, full curve, poor fit].
Consider `O=c1[nH]nc(Cc2ccc3ccccc3n2)c2ccccc12`, for which the AC50 under setting [1] was 7.94 µM [rising, partial curve].
On the same count and under the same terms, under `CCOC(=O)C1CCN(C(=O)CCc2c(C)nc3cc(-c4ccc(OC)cc4OC)nn3c2C)CC1` stands 8.91 µM [falling, partial curve]; under `COc1ccccc1N1CCN(C(=O)c2ccc3c(Cl)c4c(nc3c2)CCCC4)CC1`, 20.6 µM [falling, partial curve]; under `N#Cc1c(NC(=O)COC(=O)C2CC3C=CC2C3)oc(-c2ccccc2)c1-c1ccccc1` (centres undefined), 9.2 µM [falling, partial curve].
Turning to `CCn1c(SCC(=O)Nc2sc(C)c(C)c2C#N)nnc1C1CC1`, the AC50 under setting [1] is 35.5 µM [falling, single point].
On the same count and under the same terms, next, `C[C@H](NC(=O)C(c1ccccc1)c1ccccc1)c1ccccc1`: 20 µM [falling, single point].
On the same count and under the same terms, next, `COc1ccc(CNC(=O)CCc2c(C)nc3cc(-c4ccccc4OC)nn3c2C)cc1`: 7.94 µM [falling, partial curve, poor fit].
